PubChem BioAssay AID504793, Drosophila RNAi Screening Center – 2011

Purpose: 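Genes required for cells to halt at G2/M after double-strand DNA breaks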 (primary screen)
Cell system: Drosophila S2R+ cells
Knock-down reagent: long dsRNA against Drosophila genes, about 0.25 µg dsRNA per well
Time to read-out: 4 days of dsRNA, then 4 hours of drug before read-out
Treatment: doxorubicin 0.5 µM for 4 hours to cause double-strand breaks, in cells also given a low, harmless dose of dsRNA against nbs to sensitise the assay
Measurement: 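Mitotic index as the number of phospho-histone H3-positive cells in each well following doxorubicin, given as raw counts without normalisation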
Reading the numbers: mitotic cells: higher = more cells in mitosis, weaker G2 arrest
Hit rule: 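Genes are called active only when high mitotic counts were reproduced with independent dsRNAs and mitosis was checked for delay without damage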
Calls: active = confirmed in follow-up tests; inactive = not confirmed
In all, the deposit lists about 23,000 reagents; this is an unselected part of those with a known target gene and a result. Of all reagents, 62 (0.27%) were called active. 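Calls come from follow-up tests whose scores are not deposited, so confirmed genes may have low counts here; counts are not normalised per plate.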 The raw values are shown without normalisation.

gene	amplicon	mitotic cells, replicate 1	call
CG10512	DRSC11615	5	inactive
CG10512	DRSC27914	3	inactive
disco-r	DRSC20173	12	inactive
disco-r	DRSC20174	10	inactive
CG9263	DRSC03176	6	inactive
Ip6k	DRSC04054	3	inactive
Ip6k	DRSC24285	10	inactive
CG8584	DRSC07217	5	inactive
CG17493	DRSC03798	6	inactive
nmo	DRSC08902	8	inactive
nmo	DRSC11377	7	inactive
nmo	DRSC27949	7	inactive
Surf6	DRSC15588	7	inactive
Surf6	DRSC29437	6	inactive
CG2129	DRSC18209	6	inactive
CG2129	DRSC24934	5	inactive
CG18530	DRSC15341	5	inactive
cv-2	DRSC03861	5	inactive
cv-2	DRSC04261	9	inactive
CG15554	DRSC15092	10	inactive
RhoGAP68F	DRSC10717	8	inactive
rho	DRSC08734	9	inactive
GlnRS	DRSC14140	5	inactive
CG13837	DRSC14687	6	inactive
pont	DRSC17029	40	active
CG15760	DRSC19725	20	inactive
CG15760	DRSC25944	3	inactive
NimC4	DRSC01945	8	inactive
Trpgamma	DRSC03626	4	inactive
PsGEF (retired record)	DRSC18600	7	inactive
spidey	DRSC17932	9	inactive
spidey	DRSC30107	8	inactive
Ugt36E1	DRSC02599	8	inactive
CG18213	DRSC15316	6	inactive
CG15878	DRSC08486	5	inactive
CG15878	DRSC28875	5	inactive
CG1835	DRSC20560	7	inactive
Dhc16F	DRSC20242	11	inactive
CG17036	DRSC02564		inactive
CG17036	DRSC28145	2	inactive
gpp	DRSC12515	5	inactive
gpp	DRSC28193	7	inactive
Uch-L5R	DRSC19825	8	inactive
Ilp1	DRSC10174	3	inactive
bib	DRSC03496	5	inactive
bib	DRSC24888	7	inactive

Reformatted: 3 of the entries above
CG15760 [DRSC25944] → mitotic cells, replicate 1: 3; call: inactive
NimC4 [DRSC01945] → mitotic cells, replicate 1: 8; call: inactive
Trpgamma [DRSC03626] → mitotic cells, replicate 1: 4; call: inactive
